This passage reports TEAD-luciferase reporter activity results from the supplement of paper PMC10735217.

Each structure is given as a SMILES string. Where “and” joins values, the source holds several entries; their conditions need not be identical. Equal values may be shown once. Where a name gives a salt, the structure may show the parent alone. This is one part of the list. This data set is noisy: repeats of one test often differ as much as different tests do.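 The human kidney-derived cells carry a stably integrated construct of eight TEAD-binding elements driving luciferase, read by luminescence in a drug-repurposing library screen. A compound counts as a hit when its signal is more than five robust Z scores above the plate mean.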

In the test the test system is HEK293A TEAD-LUC reporter. Briefly: TEAD-luciferase reporter activity (YAP activation), robust Z score vs plate; higher = stronger YAP/TEAD activation. The conditions noted are these: 24 h. A general note: Reporter assays use an easily measured gene product as a stand-in for the process of interest.

As to `Oc1cccc2cccnc12` [8-Hydroxyquinoline], the TEAD-luciferase reporter activity was inactive: 0.793 (compound concentration: 200 nM) and inactive: 0.807 (compound concentration: 10 uM).
Take `C[C@]12CC[C@@H]3c4ccc(OC(=O)c5ccccc5)cc4CC[C@H]3[C@@H]1CC[C@@H]2OC(=O)COC(=O)CCCc1ccc(N(CCCl)CCCl)cc1` [Atrimustine]: the TEAD-luciferase reporter activity was inactive: -0.751 (compound concentration: 200 nM), inactive: -0.178 (compound concentration: 2 uM) and inactive: -0.301 (compound concentration: 10 uM).
For the compound `c1ccc(C2(N3CCCCC3)CCCCC2)cc1` [Phencyclidine hydrochloride], the TEAD-luciferase reporter activity is, setting by setting: (compound concentration: 200 nM) inactive: -2.41; (compound concentration: 2 uM) inactive: -0.891; (compound concentration: 10 uM) inactive: -0.994.
In the same order, the values of `CC(C)(NC(=O)c1cc2c(n(CC3CCCCC3)c1=O)CCCCCC2)C(=O)N1CCC(NS(C)(=O)=O)CC1` [CB 1/2 dual agonists, Shionogi] are active: 7.33, inactive: -0.251 and inactive: 1.26.
Regarding `NC(=O)c1cccc(Cc2c[nH]cn2)c1O`, the TEAD-luciferase reporter activity is inactive: -1.23 (compound concentration: 200 nM), inactive: 1.15 (compound concentration: 2 uM) and inactive: -0.736 (compound concentration: 10 uM).
As to `C[C@]12C/C(=C\O)C(=O)CC1CCC1C2CC[C@@]2(C)C1CC[C@]2(C)O` (stereo partly drawn) [oxymetholone], the TEAD-luciferase reporter activity (compound concentration: 2 uM) is inactive: -0.627.
For the compound `C[C@]12C/C(=C\O)C(=O)CC1CCC1C2CC[C@@]2(C)C1CC[C@]2(C)O` (stereo partly drawn) [oxymetholone, Unimed], the TEAD-luciferase reporter activity (compound concentration: 200 nM) was inactive: -0.863 and the TEAD-luciferase reporter activity (compound concentration: 10 uM) is inactive: -0.907.
On to `O=C1CCC[C@@H]2[C@H]3C[C@@H](CN12)[C@@H]1CCCCN1C3` [Lupanine], for which the TEAD-luciferase reporter activity is, setting by setting: (compound concentration: 200 nM) inactive: -0.329; (compound concentration: 2 uM) inactive: -1.53; (compound concentration: 10 uM) inactive: -1.83.
Regarding `CCOC(=O)c1ncn2c1[C@@H]1CCCN1C(=O)c1cc(OC)ccc1-2`, the TEAD-luciferase reporter activity runs as follows: (compound concentration: 200 nM) inactive: 0.474; (compound concentration: 2 uM) inactive: -1.25; (compound concentration: 10 uM) inactive: 0.0541.
Regarding `NCC1(CC(=O)O)CCCCC1` [gabapentin], the TEAD-luciferase reporter activity was inactive: -1.18 (compound concentration: 200 nM), inactive: 0.721 (compound concentration: 2 uM) and inactive: 0.984 (compound concentration: 10 uM).
In the same order, the values of `CCNC(=O)C[C@@H]1N=C(c2ccc(Cl)cc2)c2cc(OC)ccc2-n2c(C)nnc21` are inactive: -0.911, active: 5.35 and active: 5.2.
As to `C#CC1(OC(=O)CC)CC2CCC3C(CCC4(C)C3CCC4(C#C)OC(=O)CC)C2(C)C1` (stereo not drawn) [Anordrin], the TEAD-luciferase reporter activity was inactive: 1.29 (compound concentration: 200 nM), inactive: 0.134 (compound concentration: 2 uM) and inactive: 0.804 (compound concentration: 10 uM).
Take `CN(C)C(=O)N1CCCC1C(=O)N1CCC(N2Cc3ccccc3C2=O)CC1` (stereo not drawn): the TEAD-luciferase reporter activity is, setting by setting: (compound concentration: 200 nM) active: 6.91; (compound concentration: 10 uM) inactive: 3.41.
For `O=C(C[N+]12CC[C@H](CC1)[C@H](C2)OC(=O)C(c1ccccc1)(c1ccccc1)O)Nc1nocc1`, the TEAD-luciferase reporter activity was inactive: -2.53 (compound concentration: 200 nM), inactive: -0.849 (compound concentration: 2 uM) and inactive: 2.57 (compound concentration: 10 uM).
As to `COC1(CS(=O)c2ccccc2)CCN(CCc2c[nH]c3ccc(F)cc23)CC1` (stereo not drawn), the TEAD-luciferase reporter activity was inactive: 0.302 (compound concentration: 200 nM); inactive: -1.59 and inactive: 1.45 (compound concentration: 2 uM); inactive: -0.74 (compound concentration: 10 uM).
Take `Cc1c(N)nc([C@H](CC(N)=O)NC[C@H](N)C(N)=O)nc1C(=O)N[C@H](C(=O)N[C@H](C)[C@@H](O)[C@H](C)C(=O)N[C@H](C(=O)NCCc1nc(-c2nc(C(=O)NCCC[S+](C)C)cs2)cs1)[C@@H](C)O)C(O[C@@H]1O[C@@H](CO)[C@@H](O)[C@H](O)[C@@H]1O[C@H]1O[C@H](CO)[C@@H](O)[C@H](OC(N)=O)[C@@H]1O)c1c[nH]cn1` (stereo partly drawn) [Bleomycin A2 sulfate]: the TEAD-luciferase reporter activity (compound concentration: 200 nM) is inactive: -1.07, the TEAD-luciferase reporter activity (compound concentration: 2 uM) was inactive: -0.751 and the TEAD-luciferase reporter activity (compound concentration: 10 uM) is inactive: 0.949.
`NC[C@H]1O[C@H](O[C@H]2[C@H](O)[C@@H](O)[C@H](N)C[C@@H]2N)[C@H](N)[C@@H](O)[C@@H]1O` [Neamine]: the TEAD-luciferase reporter activity is, setting by setting: (compound concentration: 200 nM) inactive: -1.49; (compound concentration: 2 uM) inactive: 0.297; (compound concentration: 10 uM) inactive: -0.946.
As for `C#CC1(OC(N)=O)CCCCC1`, the TEAD-luciferase reporter activity is, setting by setting: (compound concentration: 200 nM) inactive: -0.492; (compound concentration: 2 uM) inactive: -0.308; (compound concentration: 10 uM) inactive: -0.654.
In the same order, the values of `CCC(=O)O[C@H]1CC[C@H]2[C@@H]3CCC4=CC(=O)CCC4(C)[C@H]3CCC12C` (stereo partly drawn) [Testosterone propionate] are inactive: 4.18, inactive: -0.275 and inactive: 0.749.
In the same order, the values of `CNC(=O)Oc1nc2ccccc2[nH]1` [benzimate] are inactive: -0.256, inactive: 2.99 and inactive: 0.233.
For `OCCN1CCCCC1C(c1ccccc1)c1ccccc1` (stereo not drawn), the TEAD-luciferase reporter activity was inactive: -1.4 (compound concentration: 200 nM), inactive: 0.682 (compound concentration: 2 uM) and inactive: 1.09 (compound concentration: 10 uM).
As for `c1ccc(C2CC2)c(OCC2=NCCN2)c1` [Cirazoline hydrochloride], the TEAD-luciferase reporter activity was inactive: 0.283 (compound concentration: 200 nM) and inactive: -0.164 (compound concentration: 10 uM).
On to `c1ccc(C2CC2)c(OCC2=NCCN2)c1` [cirazoline], for which the TEAD-luciferase reporter activity (compound concentration: 2 uM) is inactive: -1.08.
As for `CCS(=O)(=O)Nc1ccc2c(c1)nc(C(C)(C)C)n2CC1CCC(F)(F)CC1`, the TEAD-luciferase reporter activity reads like this: (compound concentration: 200 nM) inactive: -0.995; (compound concentration: 2 uM) inactive: -0.758; (compound concentration: 10 uM) inactive: 1.27.
For `O=NNc1cnccn1`, the TEAD-luciferase reporter activity was inactive: 0.35 (compound concentration: 200 nM), inactive: -1.3 (compound concentration: 2 uM) and inactive: -0.908 (compound concentration: 10 uM).
With `C1CCC2(CC1)OOC1(O2)C2CC3CC(C2)CC1C3` (stereo not drawn), the TEAD-luciferase reporter activity is inactive: 0.492 (compound concentration: 200 nM), inactive: -0.171 (compound concentration: 2 uM) and inactive: 1.38 (compound concentration: 10 uM).
With `O=c1[nH]c(CCCN2CC=C(c3ccc(F)cc3)CC2)nc2c(Cl)cccc12`, the TEAD-luciferase reporter activity reads like this: (compound concentration: 200 nM) inactive: -1.77; (compound concentration: 2 uM) inactive: 0.0989; (compound concentration: 10 uM) inactive: -0.201.
